{
  "source": "patent US20220273678A1",
  "about": "(priority 2020, published 2022)",
  "tested_on": "SARS-CoV-2",
  "test": "microbe, parasite or virus in culture",
  "type": "cell-based",
  "conditions": "Severe acute respiratory syndrome coronavirus 2, Calu-3, 48 h; read-out: IC50 (FIG. 1-i)",
  "data": [
    {"compound": "CCC(CC)COC(=O)[C@H](C)N[P@](=O)(OC[C@H]1O[C@@](C#N)(c2ccc3c(N)ncnn23)[C@H](O)[C@@H]1O)Oc1ccccc1", "note": "[remdesivir]", "values": [
      {"measurement": "IC50", "value": 330, "unit": "nM"}
    ]}
  ]
}
